The other results are listed elsewhere or left out. Shown are side measurements of this screen, not its main read-out; they come without a call. The list favours compounds with an active or inconclusive main result. The note in brackets gives the kind of curve behind each potency; many fits are weak.
Assay: qHTS Assay for Lipid Storage Modulators in Drosophila S3 Cells;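 as to cell number change: cells counted by Cell Tracker Red CMTPX staining in the red channel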
Settings: BODIPY lipid droplet fluorescence, 18-24 h; for cell number change: measured here: cell count max response, cells fed with added oleic acid
In short: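 Drosophila S3 cells got compounds at several concentrations plus oleic acid (400 uM solution). Laser-scanning cytometry with 488 nm excitation read lipid droplets at 500-530 nm and cells at 575-640 nm. Percent activity was relative to 20 uM Triacsin C.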

[1] = measured here: cell number channel AC50, cells fed with added oleic acid
[2] = measured here: lipid fluorescence (Fed channel) AC50, cells fed with added oleic acid

SMILES: COCCn1c(C)cc(/C=C2/NC(=O)N(c3cccc(Cl)c3)C2=O)c1C
- cell number change: 12.5%
- AC50 [1]: 2.06 µM [rising, partial curve]
- AC50 [2]: 18.4 µM [rising, single point]

SMILES: FC(F)Oc1ccc(NC(=S)NCc2ccco2)cc1Cl
- cell number change: -9.87%
- AC50 [2]: 0.58 µM [falling, single point]

SMILES: CC(C)CNS(=O)(=O)c1ccc(NC(=O)Cn2nc(-c3ccc(F)cc3)ccc2=O)cc1
- cell number change: 30.2%
- AC50 [1]: 5.8 µM [rising, partial curve]

SMILES: CCN(CC)C(=O)Cn1cc(C(=O)C(=O)N2CCN(c3ccc([N+](=O)[O-])cc3)CC2)c2ccccc21
- cell number change: 50%
- AC50 [1]: 0.164 µM [rising, full curve]
- AC50 [2]: 9.2 µM [rising, partial curve]

SMILES: Cc1cc(NC(=O)C(C)SCC(=O)O)no1 (stereo not drawn)
- cell number change: 5.35%
- AC50 [1]: 0.00461 µM [rising, full curve, poor fit]
- AC50 [2]: 0.00517 µM [rising, full curve]

SMILES: Cc1nc(NS(=O)(=O)c2ccccc2)sc1NC(=O)OCCN(C)C
- cell number change: 11%
- AC50 [1]: 0.291 µM [falling, full curve]

SMILES: O=C(NC(=S)NCC1CCCO1)c1ccc([N+](=O)[O-])cc1 (stereo not drawn)
- cell number change: 10.5%
- AC50 [2]: 0.00411 µM [falling, full curve, poor fit]

SMILES: Cc1ccc(CNS(=O)(=O)N(C)C)cc1
- cell number change: -21.1%
- AC50 [2]: 32.6 µM [falling, single point]

SMILES: Cc1oc(-c2ccccc2Cl)nc1Cn1cccc1C1=NC(c2ccccc2)CO1 (stereo not drawn)
- cell number change: -11.9%
- AC50 [2]: 6.51 µM [falling, single point]

SMILES: Cn1c(C(=O)NC2CCCCCC2)cc2c(=O)n(C)c3ccccc3c21
- cell number change: -32%
- AC50 [1]: 6.51 µM [falling, full curve, poor fit]
- AC50 [2]: 5.17 µM [falling, partial curve, poor fit]

SMILES: O=C(c1cccnc1)N1CCN(Cc2ccccc2Br)CC1
- cell number change: 1.01%

SMILES: CC(C)C[C@@H](C)C(=O)N(Cc1ccccc1)c1ccccc1
- cell number change: 5.43%

SMILES: O=C(O)c1ccc2c(=O)[nH]c(CCl)nc2c1
- cell number change: -49%
- AC50 [1]: 29.1 µM [falling, single point]
- AC50 [2]: 29.1 µM [falling, single point]

SMILES: CCCCn1nc(NC(=O)c2cccs2)c2cc3cc(OC)ccc3nc21
- AC50 [2]: 6.51 µM [rising, partial curve, poor fit]

SMILES: CCN(Cc1nc(-c2ccccc2)no1)C(=O)c1ccco1
- cell number change: 7.69%

SMILES: COc1ccc(O)c(/C=N/Nc2nc3ccccc3[nH]2)c1
- cell number change: -21.3%
- AC50 [1]: 0.146 µM [falling, partial curve, poor fit]

SMILES: COc1ccc(C(=O)OCC(=O)NCC2CCCCC2)cc1F
- cell number change: -77%
- AC50 [1]: 16.4 µM [falling, partial curve]

SMILES: CCN(CC)c1ccc(C(=O)OCC(=O)N(C(C)C)C(C)C)cc1
- cell number change: 0.782%

SMILES: Cc1ccc(S(=O)(=O)N2CCN(C(=O)c3cc(S(=O)(=O)N(C)C)ccc3N3CCCC3)CC2)c(C)c1
- cell number change: -20.5%
- AC50 [1]: 0.82 µM [falling, full curve, poor fit]
- AC50 [2]: 20.6 µM [falling, single point]

SMILES: O=C(O)CCS(=O)(=O)Cc1ccccc1Cl
- AC50 [2]: 29.1 µM [falling, single point]

SMILES: Cc1ccc2nc3c(nc2c1C)C(O)=C3O
- cell number change: -24.4%

SMILES: COc1ccc(Cn2c(O)c(/C=N/NC(=O)c3cccnc3)c3ccccc3c2=O)cc1
- cell number change: 6.84%

SMILES: Nc1nc2ccccc2n1/N=C/c1ccc(-c2ccccc2)o1
- cell number change: -31.6%
- AC50 [1]: 29.1 µM [falling, single point]

SMILES: CCOC(=O)C1CCCN(S(=O)(=O)Cc2ccccc2Cl)C1 (stereo not drawn)
- cell number change: -23.9%

SMILES: O=C(CCNS(=O)(=O)c1ccc2c(c1)CCC(=O)N2)NCc1ccc2c(c1)OCO2
- cell number change: -4.65%
- AC50 [2]: 2.91 µM [rising, single point]

SMILES: O=C1C2C(c3ccccc3)CC=CC2[C@H](c2ccc(C(F)(F)F)cc2)N1Cc1ccccc1 (stereo partly drawn)
- AC50 [2]: 29.1 µM [falling, single point]

SMILES: CCOC(=O)[C@H]1[C@H]2COc3ccc(OC)cc3[C@H]2N2C(=O)CNC(=O)[C@@]12C
- cell number change: -6.79%
- AC50 [2]: 29.1 µM [falling, single point]

SMILES: Cc1ccc2c(c1)c1c(c(=O)n(-c3ccccc3C)c(=O)n1CC(=O)NCC1CCCO1)n2C (stereo not drawn)
- cell number change: 5.19%
- AC50 [2]: 2.06 µM [rising, partial curve]

SMILES: Cc1cccc(C(=O)n2c(=S)nc3ccccn32)c1
- cell number change: 14.1%
- AC50 [2]: 6.51 µM [rising, partial curve]

SMILES: N#CC1(NC(=O)CSc2nc3ccc([N+](=O)[O-])cc3s2)CCCCC1
- cell number change: 11.6%

SMILES: CC1=CC2=NC(=O)/C(=C/c3cccn3Cc3ccccc3)C(=N)N2O1
- cell number change: 15.1%
- AC50 [2]: 0.651 µM [rising, full curve, poor fit]

SMILES: CCOC(=O)C1CCN(C(=O)c2cc(COc3ccc(F)cc3F)on2)CC1
- cell number change: 25.5%
- AC50 [2]: 20.6 µM [rising, partial curve]

SMILES: Cc1ccc(NC2CCCN(C(=O)CCC(=O)c3ccccc3)C2)cc1C (stereo not drawn)
- cell number change: -11.2%
- AC50 [2]: 0.0731 µM [falling, full curve, poor fit]

SMILES: CCN1CCN(c2ccc(S(=O)(=O)N3CCOCC3)cc2NC(=O)C(C)Oc2ccc(Cl)cc2)CC1 (stereo not drawn)
- cell number change: 66%
- AC50 [1]: 18.4 µM [rising, partial curve]

SMILES: COc1ccc([C@H]2C=C(C(=O)O)O[C@@H](OCCCCO)C2)cc1
- AC50 [2]: 25.9 µM [rising, single point]

SMILES: C=CCNC(=O)NC(=O)COC(=O)c1nc2nccc(C)n2n1
- cell number change: -45%
- AC50 [1]: 5.8 µM [falling, full curve]

SMILES: N=C1c2ccccc2CN1c1ccc(N2CCOCC2)c(S(=O)(=O)Nc2ccc(Cl)cc2)c1
- cell number change: -37.3%
- AC50 [1]: 29.1 µM [falling, single point]
- AC50 [2]: 29.1 µM [falling, single point]

SMILES: Cn1c(=O)[nH]c(=O)c2c1[nH]c(=S)n2CCCc1ccccc1
- cell number change: -16.8%
- AC50 [2]: 29.1 µM [falling, single point]

SMILES: C/C(=N\NC(=O)CNC(=O)c1ccco1)c1ccc(Br)cc1
- cell number change: 24.4%
- AC50 [1]: 6.51 µM [rising, single point]

— PubChem BioAssay AID2685 (National Center for Advancing Translational Sciences (NCATS), 2010)
